Test results published in PubChem BioAssay AID1487 (National Center for Advancing Translational Sciences (NCATS), 2009).
This is one part of the list. These are further read-outs of the screen, such as a control signal, another cell line or another target. No call is given for them. Compounds called inactive in the main read-out are mostly missing here. The note in brackets gives the kind of curve behind each potency; many fits are weak.

Assay: qHTS Assay for Modulators of Lamin A Splicing
Settings: HeLa LMNA splicing GFP/RFP minigene ratio, 48 h
Summary of the method: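 S3 HeLa cells stably expressing lamin A-EGFP splicing minigene plus DsRed2, 600 cells/well, 48 h compound exposure at 37C. Laser-scanning cytometry; analysed as GFP (500-530 nm)/RFP (575-640 nm) total intensity ratio; 0.5% DMSO vehicle.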

[1] = measured here: GFP splicing reporter channel
[2] = measured here: RFP viability control channel

Row | Structure (SMILES) | AC50 [1] | AC50 [2]
1 | CCOc1ccccc1NC(=O)c1cc(S(=O)(=O)N2CCC3(CC2)OCCO3)ccc1F | 28.2 µM [rising, partial curve, poor fit] | 35.5 µM [rising, partial curve]
2 | COc1ccc(Oc2ncc3nc(C)c(=O)n(Cc4cccc(OC)c4)c3n2)cc1 | 20 µM [falling, single point] | –
3 | Fc1ccc(-n2cc(CNCCc3ccccn3)c(-c3ccccc3Cl)n2)cc1 | 14.1 µM [falling, single point] | 35.5 µM [falling, single point]
4 | O=C(COC(=O)c1n[nH]c2ccccc12)Nc1ccc(Cl)cc1[N+](=O)[O-] | 12.6 µM [falling, partial curve] | 12.6 µM [falling, partial curve, poor fit]
5 | Cn1c(=O)c2c(SCc3cccnc3)nc(CC(C)(C)C)nc2n(C)c1=O | 14.1 µM [rising, single point] | –
6 | Cc1onc(-c2c(F)cccc2Cl)c1C(=O)NCc1ccccn1 | – | 35.5 µM [rising, single point]
7 | COc1ccc(C2C(C(=O)/C=C/c3ccco3)=C(O)C(=O)N2CCN2CCOCC2)cc1 (stereo unspecified) | 0.0224 µM [rising, full curve, poor fit] | –
8 | CCOc1ccc(C(c2c(O)cc(C)n(Cc3ccco3)c2=O)N2CCN(C)CC2)cc1 (stereo unspecified) | 0.794 µM [rising, partial curve, poor fit] | –
9 | Cc1ccc(-c2csc3nc(CSc4nnc(-c5ccc(Cl)cc5)n4C)[nH]c(=O)c23)cc1 | 14.1 µM [rising, single point] | 35.5 µM [rising, single point]
10 | CC(Nc1oc(-c2ccc(COc3ccccc3)o2)nc1C#N)c1ccccc1 (stereo unspecified) | 35.5 µM [falling, single point] | 28.2 µM [falling, single point]
11 | S=C(NCc1cccs1)Nc1ccc(Cl)cc1 | 17.8 µM [rising, partial curve, poor fit] | 15.8 µM [rising, partial curve]
12 | COc1ccccc1-c1cc(C(=O)Nc2cccnc2)no1 | 11.2 µM [rising, partial curve, poor fit] | 2.24 µM [rising, full curve]
13 | Cc1ccnc(Sc2ccc([N+](=O)[O-])cc2[N+](=O)[O-])n1 | 15.8 µM [falling, single point] | –
14 | CC1=C(C(=O)O)N2C(=O)[C@@H](NC(=O)[C@@H](N)c3ccc(O)cc3)[C@@H]2SC1 | 0.0112 µM [falling, full curve] | 0.0126 µM [falling, full curve]
15 | Cc1ccc2nc(SCC(=O)c3c(C)[nH]c4ccccc34)[nH]c2c1 | – | 14.1 µM [rising, single point]
16 | O=C(CN1C(=O)c2cccc3cccc(c23)C1=O)N1CCCCC1 | – | 0.0224 µM [rising, full curve, poor fit]
17 | Cc1cc(C)cc(NC(=O)c2oc3ccccc3c2COc2ccccc2)c1 | 20 µM [rising, single point] | 25.1 µM [rising, single point]
18 | CCOc1ccc2[nH]c(=O)c(CN(CCO)C(=O)c3ccccc3F)cc2c1 | – | 15.8 µM [rising, single point]
19 | N=c1ccn(Cc2cccc(Cl)c2)cc1 | 12.6 µM [rising, partial curve, poor fit] | 15.8 µM [rising, single point]
20 | Cc1ccc(NN2C(=O)C=C(c3ccc(Cl)cc3)C2=O)cc1 | 35.5 µM [falling, single point] | 25.1 µM [falling, single point]
21 | NCCCC[C@@H]1NC(=O)c2cc([N+](=O)[O-])cc(I)c2SC[C@@H](C(=O)NCC(N)=O)NC(=O)CNC1=O | 0.282 µM [falling, partial curve, poor fit] | –
22 | O=S1(=O)OC(c2ccc(O)cc2)(c2ccc(O)cc2)c2ccccc21 | 0.126 µM [rising, full curve, poor fit] | 35.5 µM [rising, single point]
23 | O=C(CSc1ccc(-c2ccccc2)nn1)Nc1ccc2c(c1)OCCO2 | – | 22.4 µM [rising, single point]
24 | Cc1nn(Cc2ccc(Cl)cc2)c(C)c1NC(=O)Cn1nc([N+](=O)[O-])c(Cl)c1C | – | 20 µM [falling, partial curve]
25 | CC[n+]1ccc(/C=C2\Sc3ccccc3N2CCCS(=O)(=O)[O-])c2ccccc21 | – | 0.0224 µM [falling, full curve, poor fit]
26 | COc1cccc(C(=O)Nn2cnnc2)c1 | – | 28.2 µM [falling, partial curve, poor fit]
27 | CCN(CC)S(=O)(=O)c1ccc(/C=C/C(=O)Nc2ccc(F)c(F)c2F)cc1 | 3.98 µM [rising, single point] | 2.82 µM [rising, full curve]

Some values from the entries so far:
Value of Cn1c(=O)c2c(SCc3cccnc3)nc(CC(C)(C)C)nc2n(C)c1=O under AC50 [1]: 14.1 µM [rising, single point]
Value of Cc1ccc2nc(SCC(=O)c3c(C)[nH]c4ccccc34)[nH]c2c1 under AC50 [2]: 14.1 µM [rising, single point]

More results:

Row | Structure (SMILES) | AC50 [1] | AC50 [2]
28 | c1ccc2c(Cn3nnc4ccccc43)cccc2c1 | – | 25.1 µM [rising, single point]
29 | Cc1ccc(C(=O)NCCc2csc(-c3cccc(F)c3)n2)cc1C | 11.2 µM [falling, partial curve, poor fit] | –
30 | COc1ccc(NC(=S)Nc2ccc(OCc3ccccc3)cc2)cc1OC | 12.6 µM [rising, single point] | 25.1 µM [rising, single point]
31 | COc1cc2c(cc1OC)C(COc1cc(C)cc(C)c1)N(C(=O)C(C)(C)C)CC2 (stereo unspecified) | – | 20 µM [rising, single point]
32 | Cc1ccc(C(c2sc3nc(-c4ccco4)nn3c2O)N2CCN(c3ccc(F)cc3)CC2)cc1 (stereo unspecified) | 35.5 µM [falling, single point] | –
33 | CCCCCCOC(=O)C(C#N)c1nc2ccccc2nc1N1CCN(CC)CC1 (stereo unspecified) | 35.5 µM [falling, single point] | 28.2 µM [falling, partial curve]
34 | Cc1oc(-c2cccc(Cl)c2)nc1Cn1c(SCc2ccc(F)cc2)nc2cccnc21 | – | 35.5 µM [rising, single point]
35 | O=S(=O)(Cc1cc(NCc2ccccc2)nc(-c2ccccn2)n1)c1ccccc1 | 11.2 µM [falling, partial curve] | –
36 | CC1CCCN(c2nc3c(c(=O)[nH]c(=O)n3C)n2CCSc2nc3ccccc3o2)C1 (stereo unspecified) | – | 0.501 µM [falling, full curve, poor fit]
37 | Cc1ccc(C2CC(=O)Nc3c2c(C)nn3-c2nc(C)cc(C)n2)c(C)c1 (stereo unspecified) | 5.01 µM [falling, full curve] | 5.62 µM [falling, full curve]
38 | O=C1N=C(N2CCN(c3ccccc3)CC2)SC1Cc1ccccc1 (stereo unspecified) | – | 35.5 µM [rising, single point]
39 | COC(=O)c1ccc(C2N=C(c3cccs3)CC(c3ccccc3O)N2)cc1 (stereo unspecified) | 12.6 µM [falling, partial curve] | 14.1 µM [falling, single point]
40 | Cc1cc2n(n1)CCCN2C(=O)Nc1ccccc1C(F)(F)F | – | 11.2 µM [rising, partial curve, poor fit]
41 | COc1ccc(-c2c(N)nnc3c2[nH]c2ccccc23)cc1OC | 6.31 µM [falling, single point] | 2.24 µM [falling, partial curve, poor fit]
42 | CC(C)Cc1ccc(S(=O)(=O)N2CCN(C(=O)c3ccco3)CC2)cc1 | 11.2 µM [rising, partial curve, poor fit] | 15.8 µM [rising, partial curve]
43 | CCCCCCOC(=O)CCn1[nH]c(=O)c2ccccc2c1=O | – | 14.1 µM [rising, single point]
44 | O=C(CN1CCN(C(=S)NC2CCCC2)CC1)Nc1ccc(Oc2ccccc2)cc1 | – | 35.5 µM [rising, single point]
45 | COc1ccc(N/N=C(/N=Nc2nc(C)cc(=O)[nH]2)c2ccccc2)cc1 | – | 22.4 µM [rising, single point]
46 | Cc1cc2nc(C)c(Cl)c(=O)n2[nH]1 | – | 0.00316 µM [falling, full curve, poor fit]
47 | CCn1c(=O)c([N+](=O)[O-])c(Cl)c2ccccc21 | 6.31 µM [falling, partial curve] | 14.1 µM [falling, partial curve]
48 | CC12CCC(O)CC1=CCC1C2CCC2(C)C1CCC21CCC(=O)O1 (stereo unspecified) | 11.2 µM [rising, partial curve] | –
49 | Cc1nn(C(=O)c2cccs2)c(N)c1-c1ccccc1 | – | 35.5 µM [rising, single point]
50 | COc1cc2c(C(=O)N3CCN(c4ccccc4C)CC3)c(C)oc2cc1Br | 7.94 µM [rising, partial curve] | 14.1 µM [rising, partial curve]
51 | Nc1c(S(=O)(=O)c2cccc(Cl)c2)c2nc3ccccc3nc2n1/N=C/c1ccc(O)c(O)c1 | 35.5 µM [falling, single point] | –
52 | CC(=O)c1ccc(NC(=O)N2CCN(c3ccc(C)cc3)C(C)C2)cc1 (stereo unspecified) | 0.891 µM [falling, full curve] | 1.26 µM [falling, full curve, poor fit]
53 | Clc1cccc(Nc2ncnc3c2nc2n3CCCCC2)c1 | 10 µM [falling, partial curve] | –
54 | Cc1c(S(=O)(=O)N2CCc3ccccc3C2)c(=O)n(C)c(=O)n1C | – | 7.08 µM [rising, partial curve]

Compounds shown so far with a tert-butyl group:
Row | Structure (SMILES) | AC50 [1] | AC50 [2]
5 | Cn1c(=O)c2c(SCc3cccnc3)nc(CC(C)(C)C)nc2n(C)c1=O | 14.1 µM [rising, single point] | –
31 | COc1cc2c(cc1OC)C(COc1cc(C)cc(C)c1)N(C(=O)C(C)(C)C)CC2 (stereo unspecified) | – | 20 µM [rising, single point]
